Data published in patent US20240392037A1 (UNIVERSITY OF PITTSBURGH OF THE COMMONWEALTH SYSTEM OF …, published 2024).
Results are given in words; binding and its absence hold for the method and conditions named. Some entries that bind do so weakly or less than the wild type. For part of these data: Sequences can lack the tags named with a protein.

By UniProt entry, the sequences of proteins in these tests, tags left out. Where a name states a change or a piece, a line headed by the entry shows the natural chain unless it says otherwise.
UniProt P08246: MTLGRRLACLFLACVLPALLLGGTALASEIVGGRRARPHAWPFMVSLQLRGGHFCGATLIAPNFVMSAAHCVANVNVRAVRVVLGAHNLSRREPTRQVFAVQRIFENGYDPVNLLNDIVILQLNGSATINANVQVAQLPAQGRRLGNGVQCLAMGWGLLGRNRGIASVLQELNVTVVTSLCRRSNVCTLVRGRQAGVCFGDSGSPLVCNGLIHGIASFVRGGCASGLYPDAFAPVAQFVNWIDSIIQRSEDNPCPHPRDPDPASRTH

How the values were obtained:
[1] = target: human neutrophil elastase (NE) polypeptide (human) (UniProt P08246); assay: ELISA, antigen coated at 50 ng/well
[2] = target: human neutrophil elastase (NE) polypeptide (human) (UniProt P08246); assay: ELISA on recombinant NE coated at 50 ng/well, anti-FLAG-HRP detection
[3] = target: human neutrophil elastase (NE) polypeptide (human) (UniProt P08246); assay: ELISA, NE coated at 50 ng/well, anti-FLAG-HRP detection
[4] = target: human neutrophil elastase (NE) polypeptide (human) (UniProt P08246); assay: ELISA on recombinant NE coated at 50 ng/well
[5] = target: human neutrophil elastase (NE) polypeptide (human) (UniProt P08246); assay: ELISA, NE coated at 50 ng/well
[6] = target: human neutrophil elastase (NE) polypeptide (human) (UniProt P08246); assay: BLItz, biotinylated recombinant NE on streptavidin biosensor

Measured: binding

B1: VH 1D1.43 (other)
VH: EVQLVESGGGVVQPGRSLRLSCAASGFTFSNYAMHWVRQAPGKGLEWVAVISYDGSNKYYADSVKGRFTISRDDSTNTLYLQMNNLRAEDTAVYYCAKDLPWEWELDYWGQGTLVTVSS
notes: Expressed in E. coli, purified on Ni-NTA and detected with anti-FLAG antibody; also called Clone #2; #2 (VH)
binds: [1] | [2] | [3]

B2: VH-Fc 1D1.43 (Fc fusion)
chain: EVQLVESGGGVVQPGRSLRLSCAASGFTFSNYAMHWVRQAPGKGLEWVAVISYDGSNKYYADSVKGRFTISRDDSTNTLYLQMNNLRAEDTAVYYCAKDLPWEWELDYWGQGTLVTVSS
notes: VH 1D1.43 converted to a bivalent antibody by fusion to human IgG1 Fc; also called VH-Fc ID1.43; not shown: human IgG1 Fc
binds: [4] | [5] | [6]
